PubChem BioAssay AID504784 – Drosophila RNAi Screening Center | 2011

- Purpose: 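Genome-wide knock-down for genes giving too much or too little stored lipid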 (primary screen)
- System: Drosophila Kc167 embryonic cells
- Reagents: long dsRNA against Drosophila genes, about 250 ng dsRNA per well
- Duration: 4 days
- Challenge: cells fed 400 µM oleic acid bound to BSA
- Detection: 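Cells imaged and segmented; ratio of lipid droplet area to nuclear area, log-transformed, then normalised as a B-score over the screen; higher means more stored lipid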
- Reading the numbers: droplet/nuclear area B-score: higher = more stored lipid (overstorage)
The deposit covers about 17,000 reagents; this is an unselected part of those that have a named target and a result. 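Each column is one replicate's B-score; the combined score over replicates was not deposited, so single values may mislead.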 The numbers tell different reagents against one gene apart. Reagent sequences are not shown.

gene	dsRNA no.	droplet/nuclear area B-score, replicate 1	droplet/nuclear area B-score, replicate 2	droplet/nuclear area B-score, replicate 3
net	1	0.127	-0.672	
PH4alphaNE3 (prolyl-4-hydroxylase-alpha NE3)	1	1.05	0.688	
az2	1	2.45	-0.236	
CG4842	1	0.629	0.413	
CG7131	1	-0.806	0.0287	
RpL34b (Ribosomal protein L34b)	1	0.654	1.12	
CG34166	1	1.67	-1.08	-0.841
rgn (regeneration)	1	-0.327	1.13	1.08
mdlc (midlife crisis)	1	0.00947	-0.469	
prom (prominin)	1	-0.438	0.628	
prom (prominin)	2	-0.383	0.119	
prom (prominin)	3	3.35	-0.0175	
CG5180	1	-0.214	-0.435	
uri (unconventional prefoldin RPB5 interactor)	1	0.211	0.132	
CG1951	1	0.106		
Tsp42Ej (Tetraspanin 42Ej)	1	-2.47	-1.66	
CG14089	1	0.0347	-0.0922	
mof (males absent on the first)	1	0.0313	0.135	
CG12231	1	-0.236	-0.506	
CG15260	1	0.836	2.01	
LSm7 (Like Sm 7)	1	-0.531	-0.997	
Rsph9 (Radial spoke head protein 9)	1	0.723	0.875	
wat (waterproof)	1	0.48	-1.12	
CG15484	1	-0.467	0.705	1.09
CG15484	2	-0.684	0.657	
CG7920	1	-0.018	0.688	
CG7920	2	0.0429	-0.924	
CG10597	1	-1.13	-0.012	-0.512
TwdlC (TweedleC)	1	-3.31	0.104	
CG13551	1	0.122	-0.747	
CG32985	1	0.364	-0.317	
robo2 (roundabout 2)	1	-1.47	0.503	
robo2 (roundabout 2)	2	0.0113	-0.926	
robo2 (roundabout 2)	3	2.27	-0.0487	
robo2 (roundabout 2)	4	-1.64	-1.77	
Obp85a (Odorant-binding protein 85a)	1	-0.0221	-0.856	
CG1575	1	2.84	-0.374	-1.12
kri (krishah)	1	0.586	1.35	
Oseg4 (Outer segment 4)	1	-0.407		
me31B (maternal expression at 31B)	1	1.61	-0.394	
Mmp2 (Matrix metalloproteinase 2)	1	1.4	-1.28	
Mmp2 (Matrix metalloproteinase 2)	2	-0.129	-0.888	
Capa (Capability)	1	-0.000227		
CG30289	1	0.717	-0.097	
Alp11 (Alkaline phosphatase 11)	1	-0.375	1.33	
CG8586	1	2.7	-0.0442	
Tsp42Ef (Tetraspanin 42Ef)	1	0.689	-0.575	
CG10543	1	-0.984	4.03	
CG10543	2	-0.841	-1.09	
S6KL (S6 Kinase Like)	1	-0.221	-3.36	-1.02
S6KL (S6 Kinase Like)	2	-1.13	0.882	
S6KL (S6 Kinase Like)	3	-0.333	-0.1	
CG5541	1	0.0935	1.33	0.504

Continued, starting with the last 3 of the part before.
gene	dsRNA no.	droplet/nuclear area B-score, replicate 1	droplet/nuclear area B-score, replicate 2	droplet/nuclear area B-score, replicate 3
S6KL (S6 Kinase Like)	2	-1.13	0.882	
S6KL (S6 Kinase Like)	3	-0.333	-0.1	
CG5541	1	0.0935	1.33	0.504
CG4004	1	1.46	0.022	0.0121
CG4004	2	-0.0232	1.13	0.79
d4	1		2.29	
d4	2	-0.554	-1.34	
CG31275	1	0.112	-0.198	
Tfb4 (Transcription factor B4)	1	-0.105	0.567	
Miga (Mitoguardin)	1	-0.489	0.55	
CG9776	1	0.00265	-0.41	-0.872
Mcm7 (Minichromosome maintenance 7)	1	0.535	-1.75	
alphaTub67C (alpha-Tubulin at 67C)	1	-1.41	0.211	
CG31473	1	-0.797	-0.032	
Caper	1	0.279	-3.33	
CG31360	1	0.543	2.59	
mEFTu1 (mitochondrial translation elongation factor Tu 1)	1	0.584	1.96	
CG2865	1	-1.06	-0.00339	
CG2865	2	0.138	-0.0311	
CG10934	1	-0.893	0.502	
CG15554	1	0.0474	-0.948	
CG18179	1	0.307	0.856	
mei-41 (meiotic 41)	1	0.376	0.59	
CG8726	1	-0.117	6.56	
Gdap1	1	0.653	0.188	
Uxt (Uxt prefoldin-like subunit)	1	-1.61	-0.0951	
nAChRalpha2 (nicotinic Acetylcholine Receptor alpha2)	1	-0.239	0.789	
CG4554	1	0.11	0.0479	0.931
CG13038	1	-0.567	0.00294	
mbt (mushroom bodies tiny)	1	5.98		
mbt (mushroom bodies tiny)	2	-0.85	-3.4	
CG32445	1	-1.77	0.192	
APP-BP1 (beta-Amyloid precursor protein binding protein 1)	1	-0.0107	0.173	
